From paper PMC7862700 come the findings set out here.

Chains of the proteins cited; added tags and fusions are not shown. Lines headed by an entry give the natural chain unless they say otherwise; changes in a name come on top.
UniProt O43186: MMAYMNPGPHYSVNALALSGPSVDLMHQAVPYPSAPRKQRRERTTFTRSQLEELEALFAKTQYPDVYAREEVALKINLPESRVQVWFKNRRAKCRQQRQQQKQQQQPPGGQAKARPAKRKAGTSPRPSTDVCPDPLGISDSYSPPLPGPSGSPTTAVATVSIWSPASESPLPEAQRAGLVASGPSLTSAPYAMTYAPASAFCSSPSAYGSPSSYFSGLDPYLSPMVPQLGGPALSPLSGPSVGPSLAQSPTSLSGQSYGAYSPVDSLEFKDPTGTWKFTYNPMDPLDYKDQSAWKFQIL

The list shows a part of the results, in another mix than the full data. At the low end of the ranking the order means little.

Common to all, as to test: DAPPL (digital affinity profiling via proximity ligation, sequencing)
Common to all, as to details: 10 mM Tris-HCl pH 7.5, 50 mM NaCl, 1 mM DTT, 4% glycerol, room temperature, 30 min; GST-TFs on glutathione beads, 16-mer random dsDNA library, 0.1% …; high values mean tight binding; double strand, one strand shown; scale: fold enrichment (6-mer frequency, TF over GST control)

The target of one experiment is T1, FEV (UniProt Q99581).
T1 sequence: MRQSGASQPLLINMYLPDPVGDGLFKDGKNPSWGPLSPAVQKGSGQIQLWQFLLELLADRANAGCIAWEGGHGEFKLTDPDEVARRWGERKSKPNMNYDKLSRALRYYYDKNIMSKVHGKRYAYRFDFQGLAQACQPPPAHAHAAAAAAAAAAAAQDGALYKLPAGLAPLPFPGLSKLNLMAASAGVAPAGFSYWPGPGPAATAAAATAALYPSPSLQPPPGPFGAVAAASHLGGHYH

The next experiment addresses CRX (UniProt O43186).
For another experiment, the target named is T2, ELF5 (UniProt Q9UKW6-2).
T2 sequence: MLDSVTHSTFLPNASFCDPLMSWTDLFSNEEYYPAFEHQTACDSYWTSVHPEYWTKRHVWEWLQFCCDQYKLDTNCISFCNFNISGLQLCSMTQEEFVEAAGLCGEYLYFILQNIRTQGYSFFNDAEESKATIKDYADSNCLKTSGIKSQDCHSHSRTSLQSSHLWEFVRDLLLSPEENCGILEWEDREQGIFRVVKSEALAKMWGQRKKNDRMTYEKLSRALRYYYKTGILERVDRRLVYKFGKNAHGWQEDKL

For the sequence GGGACT, the binding signal was 0.696 in the experiment with FEV, 0.653 in the experiment with CRX and 0.646 in the experiment with ELF5.
On to ACAGGT, for which the binding signal turned out to be 0.754 with FEV, 0.603 in the experiment with CRX and 0.79 with ELF5.
Taken in the same sequence, the figures for AGACGG were 0.345, 0.323 and 0.384.
For the sequence GGCATC, the binding signal with FEV is 0.879; with CRX, 0.654; with ELF5, 0.814.
For the sequence ACAGTC, the binding signal in the experiment with FEV came out at 0.392; with CRX, 0.335; with ELF5, 0.434.
Taken in the same sequence, the figures for AGTAGG were 0.665, 0.576 and 0.713.
GCAGTT: the binding signal is 0.857 with FEV, 0.682 in the experiment with CRX and 0.795 with ELF5.
Turning to GAGATT, the figures for the binding signal with FEV, with CRX and with ELF5 were 0.716, 1.57 and 0.655, respectively.
In the case of CGCAGC, the binding signal with FEV came out at 0.828; in the experiment with CRX it was 0.617; with ELF5, 0.739.
ACCGTA: the binding signal was 0.834 with FEV, 0.837 with CRX and 0.846 with ELF5.
Consider AGTCCA, for which the binding signal with FEV was 0.704; in the experiment with CRX, 0.569; with ELF5, 0.704.
Take TGGGCC: the binding signal with FEV is 0.898; with CRX, 0.657; in the experiment with ELF5, 0.815.
Taken in the same sequence, the figures for GAGGTC were 0.567, 0.415 and 0.565.
GGTCAT: the binding signal with FEV came out at 0.845; with CRX, 0.648; with ELF5 it was 0.794.
Regarding AGACTG, the binding signal in the experiment with FEV came to 0.491; with CRX it was 0.494; with ELF5 it was 0.498.
As to GCGCGA, the binding signal was found to be 0.666 with FEV, 0.619 in the experiment with CRX and 0.619 in the experiment with ELF5.
For the sequence TTCGGA, the binding signal was 0.751 with FEV, 0.758 with CRX and 0.736 with ELF5.
Taken in the same sequence, the figures for CATGAG were 0.637, 0.581 and 0.646.
Taken in the same sequence, the figures for CGGCGC were 0.633, 0.454 and 0.574.
With AGATCG, the binding signal with FEV amounted to 0.467; with CRX, 0.509; with ELF5, 0.42.
As for GACCAC, the figures for the binding signal in the experiment with FEV, with CRX and with ELF5 were 0.884, 0.591 and 0.896, respectively.
For AGACCC the same measures were 0.704, 0.601 and 0.67.
Taken in the same sequence, the figures for CGCAAG were 0.813, 0.677 and 0.769.
For the sequence AGCAAG, the binding signal with FEV came to 0.88; in the experiment with CRX, 0.803; in the experiment with ELF5, 0.861.
In the case of GAGTCG, the values for the binding signal in the experiment with FEV, with CRX and with ELF5 were 0.22, 0.184 and 0.205, respectively.
For GGAGGT the same measures were 0.319, 0.26 and 0.337.
As for GGGCAG, the binding signal amounted to 0.596 in the experiment with FEV, 0.437 with CRX and 0.588 with ELF5.
As for AGTCCG, the binding signal with FEV turned out to be 0.616; with CRX it was 0.428; with ELF5 it was 0.638.
Turning to GCGGTG, the binding signal with FEV is 0.536; in the experiment with CRX it was 0.388; with ELF5, 0.526.
For CGGTGA the same measures were 0.509, 0.33 and 0.406.
For GGTGTG the same measures were 0.65, 0.486 and 0.651.
Regarding AGCCGG, the binding signal in the experiment with FEV worked out at 0.633; with CRX, 0.495; with ELF5, 0.574.
As for GACAGG, the binding signal with FEV is 0.591; with CRX, 0.414; with ELF5 it was 0.575.
Taken in the same sequence, the figures for GGTACC were 0.797, 0.497 and 0.799.
As for CGGGAC, the binding signal in the experiment with FEV was determined as 0.577; in the experiment with CRX it was 0.364; with ELF5, 0.577.
Regarding GCCATG, the binding signal was 0.798 in the experiment with FEV, 0.622 in the experiment with CRX and 0.745 in the experiment with ELF5.
